From paper PMC10801318
No constants are given. Whether binding was seen depends on the method and setting. In cells and extracts the contact can be indirect. Some entries that bind do so weakly or less than the wild type. Where a sequence is shown, tags or fusion partners need not be part of it.

Chains of the proteins cited; added tags and fusions are not shown.
UniProt Q5VVQ6: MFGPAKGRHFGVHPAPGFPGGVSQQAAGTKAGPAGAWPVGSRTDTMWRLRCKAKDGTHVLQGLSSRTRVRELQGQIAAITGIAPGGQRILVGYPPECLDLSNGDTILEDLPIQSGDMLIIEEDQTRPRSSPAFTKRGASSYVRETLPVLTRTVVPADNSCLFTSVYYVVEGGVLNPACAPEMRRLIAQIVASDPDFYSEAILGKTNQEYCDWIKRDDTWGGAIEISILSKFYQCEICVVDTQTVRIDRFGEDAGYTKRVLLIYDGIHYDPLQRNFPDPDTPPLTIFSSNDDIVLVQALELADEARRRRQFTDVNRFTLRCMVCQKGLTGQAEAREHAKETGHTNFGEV

Target: Myc-YOD1 (UniProt Q5VVQ6)
Experiment: co-IP; Flag-TRIM54 and Myc-YOD1 cotransfected into HEK 293T cells, 24 h; RIPA lysate; anti-Myc or anti-FLAG overnight at 4 °C; beads washed with RIPA three times; Western blot

B1: Flag-TRIM54 (protein, UniProt Q9BYV2 1-358)
chain: MNFTVGFKPLLGDAHSMDNLEKQLICPICLEMFSKPVVILPCQHNLCRKCANDVFQASNPLWQSRGSTTVSSGGRFRCPSCRHEVVLDRHGVYGLQRNLLVENIIDIYKQESSRPLHSKAEQHLMCEEHEEEKINIYCLSCEVPTCSLCKVFGAHKDCEVAPLPTIYKRQKSELSDGIAMLVAGNDRVQAVITQMEEVCQTIEDNSRRQKQLLNQRFESLCAVLEERKGELLQALAREQEEKLQRVRGLIRQYGDHLEASSKLVESAIQSMEEPQMALYLQQAKELINKVGAMSKVELAGRPEPGYESMEQFTVRVEHVAEMLRTIDFQPGASGEEEEVAPDGEEGSAGPEEERPDGP
binding: binds
